Measurements taken from the supplement of paper PMC6078165.

Tested on: HCC1143
Assay: relative JC-1 red fluorescence (viability) vs pre-drug, coculture with fibroblast (fraction); higher = more viable cancer cells
Experimental: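 JC-1 labelled TNBC cells cocultured 1:1 (1,500 cells each) with CellTrace Violet stained primary or stromal fibroblasts in 384-well plates in FluoroBrite medium, treated with one of 42 anticancer drugs at 0.1, 1, 10 or 100 uM. JC-1 red fluorescence (mitochondrial integrity in cancer cells only) was read by plate reader every 8 h for 72 h. Values are normalised to each well's pre-drug value. The stock of one drug was tenfold lower, so its dose labels may be too high.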

CN(C)CCOc1ccc(/C(=C(/CCCl)c2ccccc2)c2ccccc2)cc1 [Toremifene]
relative JC-1 red fluorescence
Conditions	8 h	16 h	24 h	32 h	40 h	48 h	56 h	64 h	72 h
0.1 µM, coculture fibroblast: C12385	0.8412	0.7617	0.6791	0.6063	0.536	0.476	0.429	0.383	0.359
0.1 µM, coculture fibroblast: H6013	0.754	0.663	0.621	0.6044	0.5413	0.52572	0.48998	0.4717	0.44
0.1 µM, coculture fibroblast: H6019	0.792	0.727	0.676	0.612	0.565	0.534	0.483	0.446	0.412
0.1 µM, coculture fibroblast: H6076	0.807	0.807	0.76	0.712	0.655	0.632	0.599	0.567	0.577
0.1 µM, coculture fibroblast: H6231	0.852	0.8026	0.7419	0.673	0.637	0.611	0.572	0.531	0.508
0.1 µM, coculture fibroblast: HADF	0.801	0.736	0.704	0.701	0.6	0.567	0.527	0.498	0.488
0.1 µM, coculture fibroblast: HCFa	0.795	0.734	0.688	0.658	0.579	0.55	0.507	0.47	0.435
0.1 µM, coculture fibroblast: HCPF	0.8341	0.7948	0.741	0.683	0.6337	0.6023	0.563	0.534	0.5251
0.1 µM, coculture fibroblast: HHSteC	0.817	0.723	0.683	0.645	0.569	0.545	0.5	0.469	0.438
0.1 µM, coculture fibroblast: HMF	0.799	0.863	0.781	0.702	0.685	0.644	0.605	0.562	0.529
0.1 µM, coculture fibroblast: HPFa	0.9011	0.796	0.754	0.672	0.614	0.584	0.517	0.47	0.439
0.1 µM, coculture fibroblast: HUF	0.8507	0.7809	0.72	0.643	0.595	0.559	0.506	0.47	0.442
0.1 µM, coculture fibroblast: Hs5	0.865	0.886	0.8484	0.815	0.746	0.71	0.677	0.643	0.633
0.1 µM, coculture fibroblast: Hs27A	0.736	0.641	0.6	0.622	0.499	0.478	0.431	0.401	0.386
0.1 µM, coculture fibroblast: Hs343T	0.831	0.859	0.821	0.747	0.727	0.685	0.643	0.615	0.601
0.1 µM, coculture fibroblast: WS1	0.842	0.79	0.732	0.673	0.631	0.613	0.5754	0.5533	0.534
1 µM, coculture fibroblast: C12385	0.8573	0.7777	0.694	0.619	0.553	0.511	0.4617	0.424	0.402
1 µM, coculture fibroblast: H6013	0.793	0.6955	0.67	0.658	0.573	0.552	0.522	0.494	0.459
1 µM, coculture fibroblast: H6019	0.835	0.76	0.729	0.665	0.63	0.602	0.563	0.522	0.489
1 µM, coculture fibroblast: H6076	0.8229	0.879	0.821	0.7497	0.728	0.703	0.671	0.643	0.637
1 µM, coculture fibroblast: H6231	0.847	0.847	0.7676	0.661	0.675	0.643	0.606	0.56	0.534
1 µM, coculture fibroblast: HADF	0.774	0.706	0.656	0.673	0.568	0.528	0.496	0.466	0.473
1 µM, coculture fibroblast: HCFa	0.796	0.698	0.6622	0.65	0.563	0.53	0.487	0.452	0.434
1 µM, coculture fibroblast: HCPF	0.84	0.828	0.779	0.715	0.693	0.664	0.623	0.583	0.569
1 µM, coculture fibroblast: HHSteC	0.804	0.714	0.655	0.6174	0.5363	0.494	0.4494	0.422	0.3987
1 µM, coculture fibroblast: HMF	0.837	0.866	0.8	0.726	0.708	0.688	0.657	0.624	0.608
1 µM, coculture fibroblast: HPFa	0.949	0.8572	0.815	0.736	0.654	0.628	0.568	0.515	0.464
1 µM, coculture fibroblast: HUF	0.9218	0.8539	0.77805	0.717	0.676	0.6504	0.609	0.574	0.552
1 µM, coculture fibroblast: Hs5	0.8486	0.863	0.817	0.765	0.701	0.671	0.636	0.608	0.589
1 µM, coculture fibroblast: Hs27A	0.769	0.695	0.663	0.681	0.551	0.527	0.47	0.429	0.407
1 µM, coculture fibroblast: Hs343T	0.822	0.854	0.777	0.69	0.672	0.63	0.567	0.53	0.499
1 µM, coculture fibroblast: WS1	0.854	0.773	0.716	0.642	0.579	0.534	0.491	0.453	0.433
10 µM, coculture fibroblast: C12385	0.8871	0.8421	0.7998	0.7411	0.699	0.64	0.6066	0.5605	0.529
10 µM, coculture fibroblast: H6013	0.783	0.755	0.739	0.758	0.687	0.659	0.644	0.63	0.723
10 µM, coculture fibroblast: H6019	0.8745	0.8519	0.811	0.765	0.735	0.708	0.677	0.635	0.606
10 µM, coculture fibroblast: H6076	0.816	0.9551	0.9303	0.7932	0.841	0.804	0.766	0.725	0.704
10 µM, coculture fibroblast: H6231	0.812	0.944	0.891	0.598	0.803	0.751	0.73	0.691	0.647
10 µM, coculture fibroblast: HADF	0.75	0.718	0.701	0.743	0.6368	0.598	0.584	0.569	0.69
10 µM, coculture fibroblast: HCFa	0.834	0.835	0.847	0.897	0.808	0.787	0.748	0.716	0.779
10 µM, coculture fibroblast: HCPF	0.817	0.839	0.955	0.686	0.884	0.838	0.812	0.783	0.746
10 µM, coculture fibroblast: HHSteC	0.809	0.78	0.76	0.762	0.679	0.651	0.625	0.599	0.618
10 µM, coculture fibroblast: HMF	0.814	0.9918	0.917	0.709	0.825	0.772	0.727	0.682	0.614
10 µM, coculture fibroblast: HPFa	0.918	0.869	0.828	0.745	0.717	0.684	0.648	0.618	0.589
10 µM, coculture fibroblast: HUF	0.9195	0.891	0.883	0.833	0.788	0.744	0.704	0.666	0.629
10 µM, coculture fibroblast: Hs5	0.868	0.774	0.897	0.901	0.871	0.892	0.819	0.861	0.802
10 µM, coculture fibroblast: Hs27A	0.758	0.707	0.685	0.742	0.582	0.523	0.511	0.484	0.616
10 µM, coculture fibroblast: Hs343T	0.836	0.89	0.914	0.785	0.883	0.83	0.777	0.75	0.702
10 µM, coculture fibroblast: WS1	0.903	0.892	0.897	0.859	0.839	0.808	0.777	0.765	0.745
100 µM, coculture fibroblast: C12385	0.326	0.159	0.13	0.102	0.0697	0.052	0.0333	0.0143	0.0273
100 µM, coculture fibroblast: H6013	0.363	0.254	0.233	0.202	0.17	0.159	0.122	0.0985	0.0397
100 µM, coculture fibroblast: H6019	0.3569	0.23	0.203	0.169	0.14	0.132	0.109	0.0865	0.0723
100 µM, coculture fibroblast: H6076	0.362	0.213	0.203	0.209	0.128	0.109	0.0724	0.0463	0.0353
100 µM, coculture fibroblast: H6231	0.547	0.362	0.284	0.332	0.212	0.184	0.147	0.109	0.0912
100 µM, coculture fibroblast: HADF	0.379	0.246	0.202	0.172	0.138	0.123	0.0901	0.0637	0.00965
100 µM, coculture fibroblast: HCFa	0.352	0.25	0.234	0.21	0.171	0.156	0.122	0.0955	0.0437
100 µM, coculture fibroblast: HCPF	0.5461	0.366	0.302	0.329	0.217	0.188	0.148	0.112	0.096
100 µM, coculture fibroblast: HHSteC	0.28	0.213	0.192	0.158	0.126	0.11	0.0769	0.0563	0.0285
100 µM, coculture fibroblast: HMF	0.43	0.199	0.171	0.193	0.0986	0.0805	0.0483	0.0226	0.0355
100 µM, coculture fibroblast: HPFa	0.457	0.378	0.345	0.29	0.246	0.229	0.188	0.161	0.141
100 µM, coculture fibroblast: HUF	0.414	0.317	0.28	0.25	0.216	0.196	0.158	0.133	0.11
100 µM, coculture fibroblast: Hs5	0.487	0.336	0.307	0.309	0.208	0.179	0.144	0.111	0.097
100 µM, coculture fibroblast: Hs27A	0.333	0.253	0.22	0.223	0.174	0.191	0.156	0.142	0.0795
100 µM, coculture fibroblast: Hs343T	0.336	0.197	0.174	0.193	0.107	0.0889	0.0567	0.0332	0.0132
100 µM, coculture fibroblast: WS1	0.35	0.194	0.175	0.138	0.105	0.0883	0.0657	0.0455	0.0381

The reference is the same well before dosing, and untreated signal decays as well.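 Fibroblast labels name human fibroblasts: mostly primary ones from tissues such as uterus (C12385, HUF), lung (H6013), bone (Hs27A), adrenal (HADF) and skin (WS1), plus mammary HMF and breast cancer-associated Hs343T. The cancer cells are basal-like or mesenchymal-like triple-negative breast cancer lines. The paper calls a changed response a hit when it shifts by more than 3x the replicate standard deviation. The tissue of the other fibroblasts is not given here.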
